Source: patent publication US11802878B2, “Protein sequencing method and reagents” (The Governing Council of the University of Toronto, priority 2009, dated 2023)
At least one compound was matched to its structure with a doubt left. Residues, ends and D or L forms follow the SMILES beside them.

Sequences of proteins named here, by UniProt entry; tags and fusion partners are left off. A change or cut given only in a name is not applied to a line headed by its entry.
UniProt P0A8Q6: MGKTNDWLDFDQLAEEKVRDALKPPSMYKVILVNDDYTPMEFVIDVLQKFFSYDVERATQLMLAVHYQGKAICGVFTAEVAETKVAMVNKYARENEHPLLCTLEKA

Biological target: T1, ClpS variant W1 (Escherichia coli, UniProt P0A8Q6, L99A/M40A/M62C/P98A/V43C/V65A)
T1 construct: ST2 secretion signal (N, cleaved yes); made in house; host or cells: M13 phage display, amplified in E. coli XL1Blue with helper phage M13K07
T1 sequence (P0A8Q6 23-106 M40A/V43C/M62C/V65A/P98A/L99A): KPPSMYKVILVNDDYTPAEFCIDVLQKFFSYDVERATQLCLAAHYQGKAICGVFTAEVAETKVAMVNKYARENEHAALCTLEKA
Experiment: Competitive phage ELISA, non-biotinylated peptide competitors against immobilized Wpep
Design: species or system E. coli
Conditions: read-out: concentration of competitor required to block 50% of variant W1 binding (IC50); phage bearing ClpS variant W1; immobilized Wpep on neutravidin; n=2

CC[C@H](C)[C@H](NC(=O)[C@H](CC(C)C)NC(=O)[C@H](CO)NC(=O)CNC(=O)[C@H](C)NC(=O)[C@@H](NC(=O)[C@H](Cc1ccccc1)NC(=O)[C@H](CCSC)NC(=O)CNC(=O)[C@H](CC(=O)O)NC(=O)[C@H](CO)NC(=O)[C@@H](N)Cc1c[nH]c2ccccc12)[C@@H](C)O)C(=O)O [Wpep] (H-WSDGMFTAGSLI-OH; N-terminus and C-terminus assumed)
IC50: ~1000 nM
